Laboratory results reported in PubChem BioAssay AID2685 (National Center for Advancing Translational Sciences (NCATS), 2010).
This is one part of the list. These are further read-outs of the screen, such as a control signal, another cell line or another target. No call is given for them. Most of these compounds were active or inconclusive in the main read-out, so they are no random draw. The note in brackets gives the kind of curve behind each potency; many fits are weak.

Assay: qHTS Assay for Lipid Storage Modulators in Drosophila S3 Cells;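 on cell number change: cells counted by Cell Tracker Red CMTPX staining in the red channel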
Conditions: BODIPY lipid droplet fluorescence, 18-24 h; for cell number change: measured here: cell count max response, cells fed with added oleic acid
In short: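 Drosophila S3 cells got compounds at several concentrations plus oleic acid (400 uM solution). Laser-scanning cytometry with 488 nm excitation read lipid droplets at 500-530 nm and cells at 575-640 nm. Percent activity was relative to 20 uM Triacsin C.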

[1] = measured here: lipid fluorescence (Fed channel) AC50, cells fed with added oleic acid
[2] = measured here: cell number channel AC50, cells fed with added oleic acid

| Structure (SMILES) | cell number change [%] | AC50 [1] | AC50 [2] |
| --- | --- | --- | --- |
| COc1ccc(C2CC(c3ccccc3OC(C)=O)=NN2C(=O)/C=C/c2ccccc2)cc1OC (centres undefined) | -21.6 | 10.3 µM [falling, partial curve] | – |
| CCN(CC(=O)NCc1cccs1)C(=O)CCc1c[nH]c2ccccc12 | – | 5.17 µM [rising, partial curve, poor fit] | – |
| CCCOC(=O)/C(=C\c1ccc([N+](=O)[O-])o1)NC(=O)c1ccccc1 | -21.7 | 16.4 µM [falling, partial curve, poor fit] | – |
| COc1ccc(CCNC(=O)C2CCN(C(=O)c3ccc([N+](=O)[O-])cc3)CC2)cc1 | 15.8 | – | – |
| Fc1ccc(/C=N/n2c(C3CCCCC3)n[nH]c2=S)cc1 | -11.1 | – | – |
| CCCCOc1ccc(S(=O)(=O)Nc2cc(OC)ccc2OC)cc1 | -24.8 | 18.4 µM [rising, single point] | – |
| CN(CC(=O)Nc1c(Cl)cccc1Cl)C(=O)C1CC(=O)N(Cc2ccccc2)C1 (centres undefined) | -44.8 | 18.4 µM [falling, partial curve, poor fit] | 32.6 µM [falling, single point] |
| O=C(NCC1CCCO1)c1ccc(-c2cccc(C(F)(F)F)c2)o1 (centres undefined) | 6.45 | – | – |
| NS(=O)(=O)c1ccc(N=C2C(=O)Nc3ccccc32)cc1 | -57.6 | 29.1 µM [falling, single point] | – |
| Cc1ccc(C)c(N2CCN(C(=O)C3CCCCN3S(=O)(=O)c3ccc(F)cc3)CC2)c1 (centres undefined) | -3.61 | 29.1 µM [rising, single point] | – |
| O=C1/C(=C/c2ccco2)Cc2ccccc21 | – | 25.9 µM [falling, single point] | – |
| CCOC(=O)C1CCN(CC(=O)Nc2cc(S(=O)(=O)N3CCCCC3)ccc2Cl)CC1 | 122 | – | – |
| COc1ccc(Cl)cc1NC(=O)c1cc(-c2ccccc2O)n[nH]1 | -15.6 | – | – |
| Cc1cc([N+](=O)[O-])nn1Cc1ccc(F)cc1 | -64.7 | – | 1.84 µM [falling, partial curve] |
| O=C(c1cccc(Cl)c1)N1CCN(Cc2ccccc2)CC1 | 2.91 | 29.1 µM [rising, single point] | – |
| COc1cc(NC(=O)c2cc3ccccc3cc2O)c(OC)cc1Cl | -69.3 | 16.4 µM [falling, partial curve] | 18.4 µM [falling, single point] |
| CCn1c(-c2csc3ccccc23)n[nH]c1=S | 15.1 | 9.2 µM [rising, partial curve] | – |
| N#Cc1cc2c(nc1SCC1COc3ccccc3O1)CCC2 (centres undefined) | 0.849 | 4.11 µM [rising, full curve] | – |
| Cn1c(N/N=C/c2cc3ccccc3nc2Cl)nc2ccccc21 | 44.5 | – | 23.1 µM [rising, partial curve] |
| N#CC1(NC(=O)COC(=O)CCN=C2NS(=O)(=O)c3ccccc32)CCCCC1 | -22.6 | 2.31 µM [falling, single point] | – |
| C#CC(CC)(CC)NC(=O)NC1CCCCC1 | -25 | 29.1 µM [falling, single point] | – |

Quoted at random: 3 records from the list, in no set order.

| Structure (SMILES) | cell number change [%] | AC50 [1] | AC50 [2] |
| --- | --- | --- | --- |
| COc1ccc(Cl)cc1NC(=O)c1cc(-c2ccccc2O)n[nH]1 | -15.6 | – | – |
| Cc1ccc(C)c(N2CCN(C(=O)C3CCCCN3S(=O)(=O)c3ccc(F)cc3)CC2)c1 (centres undefined) | -3.61 | 29.1 µM [rising, single point] | – |
| COc1ccc(C2CC(c3ccccc3OC(C)=O)=NN2C(=O)/C=C/c2ccccc2)cc1OC (centres undefined) | -21.6 | 10.3 µM [falling, partial curve] | – |

Following part:

| Structure (SMILES) | cell number change [%] | AC50 [1] | AC50 [2] |
| --- | --- | --- | --- |
| CCCCCCOc1ccc(N2C(=O)CC(SCCN)C2=O)cc1 (centres undefined) | -17.5 | 0.146 µM [falling, full curve, poor fit] | – |
| COc1cc(NC(=O)C(C)C)ccc1NC(=O)c1ccco1 | 21.7 | – | 0.291 µM [rising, full curve, poor fit] |
| O=S(=O)(c1cccs1)N1CCN(c2cccc(Cl)c2)CC1 | 2.63 | 35.5 µM [rising, single point] | – |
| CC(OC(=O)C1=COCCO1)C(=O)NC1CCCCC1C (centres undefined) | 7.04 | – | – |
| COc1ccc(NS(=O)(=O)c2cccc(C(=O)NC3CCC(O)CC3)c2)cc1 (centres undefined) | -38.1 | 11.6 µM [falling, single point] | 11.6 µM [falling, single point] |
| CC(C)Cn1c(N)c(C(=O)COC(=O)CCc2nc3ccccc3c(=O)[nH]2)c(=O)n(C)c1=O | 16 | 6.51 µM [falling, single point] | 6.51 µM [falling, single point] |
| CC1=CCC(C(=O)O)C(C(=O)Nc2nc3ccc(S(C)(=O)=O)cc3s2)C1 (centres undefined) | -22.3 | 20.6 µM [falling, single point] | – |
| COC(=O)[C@@H](Cc1c[nH]c2ccccc12)NC(=O)C1CCCN(S(=O)(=O)c2ccc(C)cc2)C1 (some centres undefined) | 4.26 | – | – |
| COc1ccc(CN2CC(C(=O)NCCC3=CCCCC3)CC2=O)cc1 (centres undefined) | -14.6 | 16.4 µM [falling, single point] | – |
| COc1ccc(N2CCN(CCCNS(=O)(=O)c3ccc4c(c3)oc(=O)n4C)CC2)cc1 | -13.2 | – | 0.58 µM [rising, single point] |
| Clc1ccc(OCCCn2ccnc2)c(Br)c1 | 6.35 | 0.82 µM [rising, full curve] | – |
| Cn1cc(CCCC(=O)NCc2ccccc2)c2ccccc21 | 9.93 | – | – |
| N#Cc1ccccc1OCC(=O)Nc1ccccc1C(=O)NC1CC1 | 3.28 | – | 6.51 µM [falling, single point] |
| COC(=O)c1cc2c(cc1[N+](=O)[O-])OCO2 | 59.3 | 29.1 µM [rising, single point] | 25.9 µM [rising, single point] |
| NC(=O)C[C@@H]1N[C@]2(C(=O)Nc3ccccc32)[C@@H]2C(=O)N(c3cc(C(F)(F)F)ccc3Cl)C(=O)[C@H]12 | 5.61 | 4.11 µM [falling, single point] | – |
| COc1ccc(CNC(=O)C(c2ccco2)N(C(=O)c2snc(C(N)=O)c2N)c2ccccc2OC)cc1 (centres undefined) | -3.85 | 29.1 µM [rising, partial curve, poor fit] | – |
| CN1/C(=C\C(=O)CSc2ncn[nH]2)C(C)(C)c2ccccc21 | 12.4 | 18.4 µM [rising, partial curve] | – |
| COc1ccccc1CNC(=O)C(=O)NCC1CCCN1S(=O)(=O)c1cccs1 (centres undefined) | -10.4 | – | – |
| COc1ccc(-n2c(SC3CCOC3=O)nc3ccccc3c2=O)cc1Cl (centres undefined) | 211 | 29.1 µM [rising, partial curve] | 18.4 µM [rising, partial curve] |
| COc1ccccc1-c1ccc(SCc2ccc(F)cc2)nn1 | 17.9 | – | 0.00461 µM [falling, full curve, poor fit] |
| Cc1cccc(N2CCN(C(=O)Cn3cccc3C(=O)c3ccccc3)CC2)c1C | 81 | 0.82 µM [falling, single point] | 20.6 µM [rising, single point] |

| Structure (SMILES) | cell number change [%] | AC50 [1] | AC50 [2] |
| --- | --- | --- | --- |
| CCOC(=O)C=Nc1c(N)n(C)c(=O)n(C)c1=O | 9.99 | 29.1 µM [falling, single point] | – |
| Nc1ccc(N2CCCCC2)c(Cl)c1 | -5.73 | 2.91 µM [falling, single point] | – |
| Cc1cc(C)n2nc(C(=O)OCC(=O)NCc3ccccc3)nc2n1 | 14.9 | 1.46 µM [falling, single point] | – |
| COc1cccc(C(=O)NNC(=O)Cc2ccc(Cl)cc2)c1 | -36.2 | 0.206 µM [falling, full curve, poor fit] | 0.13 µM [falling, partial curve] |
| COc1ccc(/C=N/Nc2ccc(C(F)(F)F)cc2[N+](=O)[O-])cc1O | -24.9 | 0.651 µM [rising, partial curve, poor fit] | – |
| Cc1ccc(S(=O)(=O)N(C)C)cc1NC(=O)c1ccccc1SCC(=O)N1CCCC1 | -2.06 | – | – |
| COC(=O)c1nn(-c2ccccc2)nc1-c1nn(-c2ccccc2)nc1C(=O)OC | -12.6 | – | – |
| Cc1ccsc1/C=N/NC(=O)c1sccc1C | -3.77 | 29.1 µM [falling, single point] | – |
| O=C(c1ccc(Cl)nc1)N1CCc2ccccc2C1 | -1.52 | – | – |
| CC(C)CNC(=O)C(=O)Nc1cc2c3c(c1)C(C)C(=O)N3CCC2 (centres undefined) | -24.7 | – | – |
| CCOc1cc(CC(=O)N[C@@H](CC(C)C)c2ccccc2N2CCCCC2)ccc1C(=O)O | -31.3 | 23.1 µM [falling, single point] | 20.6 µM [falling, single point] |
| CCN(CC(=O)Nc1c(F)cccc1F)C(=O)CN1c2cccc3cccc(c23)S1(=O)=O | -40 | 7.31 µM [falling, partial curve] | 20.6 µM [falling, single point] |
| CCOc1ccc(-n2c(=S)sc3c(=O)[nH]c(SCC(=O)NCC4CCCO4)nc32)cc1 (centres undefined) | -1.01 | 1.64 µM [rising, partial curve, poor fit] | – |
| COc1ccc2oc(C(=O)Nc3ccc(C)cn3)c(C)c2c1 | 25 | – | – |
| Cc1ccc(C(=O)N(Cc2sccc2C)C2CCS(=O)(=O)C2)cc1 (centres undefined) | 7.13 | – | – |
| Cc1ccc(NC(=O)Cn2c(=O)c3cccn3c3ccccc32)cc1 | 49.2 | 23.1 µM [falling, single point] | 23.1 µM [rising, partial curve, poor fit] |
| O=C(COC(=O)CSc1ccc(F)cc1)NNC(=O)c1ccc([N+](=O)[O-])cc1 | 6.74 | 20.6 µM [falling, partial curve, poor fit] | – |
| O=C1c2ccccc2NC(c2ccc(-c3ccc(F)cc3)o2)N1O (centres undefined) | -24.6 | – | – |
| O=C(O)C(Cc1c[nH]c2ccccc12)N1C(=O)c2ccccc2C1=O (centres undefined) | -4.27 | – | – |
| Cc1cnc(C(=O)OC(C)C(=O)NCc2ccccc2)cn1 (centres undefined) | -0.549 | 6.51 µM [falling, single point] | – |
| Cc1cccn2c(=O)c3cc(C(=O)N4CCN(Cc5ccccc5)CC4)sc3nc12 | 36.6 | 25.9 µM [rising, partial curve, poor fit] | 29.1 µM [rising, single point] |
